# From patent US20230248797A1, “Method for preparing medicine with Chinese yam protein extract for treating erectile dysfunction” (priority 2020, published 2023)
# At least one compound was matched to its structure with a doubt left.
# Columns and labels:
# TM3 cells = assay: CCK8 cell viability of H2O2 damaged TM3 cells; assay type: cell-based, mouse; conditions: inhibitor pretreated 1 h, then 62.5 μg/mL CYCSE 24 h, 0.4 mM H2O2 2 h
# Experimental: TM3 cells: purchased from Shanghai Cell Bank of the Chinese Academy of Sciences. The culture conditions are DMEM/F12+5% horse serum+2.5% fetal bovine serum+1% penicillin-streptomycin, 37° C., 5% CO2 incubator. TM3 cells were placed in a 96-well plate at a density of 3×10^4 cells/mL and divided into 6 groups: control group, H2O2 group, CYCSE group, ERK inhibitor ([…] group, AKT inhibitor ([…] group, and sildenafil group. After the two inhibitors were pretreated for 1 […] was added and processed for 24 h, and 0.4 mM H2O2 was added and processed for 2 h. After the two kinds of cells were treated separately, CCK8 was added and incubated at 37° C. for 1 h. A microplate reader was used to measure absorbance at 450 nm and calculate the cell viability.
# [1] = tested on: ERK and AKT signal pathways in TM3 cells; assay: Western blot of p-ERK/ERK and p-AKT/AKT in TM3 cells; assay type: cell-based, mouse; conditions: H2O2 damaged TM3 cells
# Experimental: TM3 cells: purchased from Shanghai Cell Bank of the Chinese Academy of Sciences. The culture conditions are DMEM/F12+5% horse serum+2.5% fetal bovine serum+1% penicillin-streptomycin, 37° C., 5% CO2 incubator. TM3 cells were placed in a 96-well plate at a density of 3×10^4 cells/mL and divided into 6 groups: control group, H2O2 group, CYCSE group, ERK inhibitor ([…] group, AKT inhibitor ([…] group, and sildenafil group. After the two inhibitors were pretreated for 1 […] was added and processed for 24 h, and 0.4 mM H2O2 was added and processed for 2 h. The TM3 cells or the MCECs were placed in 6-well plates, and the CYCSE was added to process for 24 h and 0.4 mM H2O2 to process for 2 h. The cells were collected and washed twice with PBS, wherein supernatant was discarded. The testicular tissue in liquid nitrogen was ground into powder. 200 μL of RIPM lysis solution (containing 1% PMSF) was added to each of the above samples to lyse on ice for 30 min and centrifuge at 12000 r for 10 min at 4° C., wherein supernatant was stored at -20° C. for later use. A BCA protein content detection kit was used to determine protein content in the samples and to adjust protein concentration to the same level. An equal volume of 2× loading buffer was added to an appropriate amount of the extracted protein sample, which was mixed well, boiled for 10 min, and stored at -20° C. […]
smiles,measurement,setting,value
O=c1cc(N2CCOCC2)oc2c(-c3ccccc3)cccc12 [LY294002],Effect of inhibitor on the protective effect of CYCSE on TM3 cell viability,TM3 cells,significantly block the protective effect
same,CYCSE-induced increase of p-ERK/ERK and p-AKT/AKT in TM3 cells with inhibitor,[1],significantly down-regulated
